Test [1] deals with T1, Biotin-labelled plectasin NZX peptide (Pseudoplectania nigrella).
T1 sequence (chain, biotin at the C-terminal): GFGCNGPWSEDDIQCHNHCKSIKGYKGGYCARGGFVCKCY
Kind of test: affinity purification with mass spectrometry; only the target purified.

The chains behind the UniProt entries cited, without tags or fusion partners.
UniProt P0A4W7: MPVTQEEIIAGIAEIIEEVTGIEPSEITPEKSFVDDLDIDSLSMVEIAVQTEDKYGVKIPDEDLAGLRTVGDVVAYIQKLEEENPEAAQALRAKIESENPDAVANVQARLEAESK
UniProt A1KPA8: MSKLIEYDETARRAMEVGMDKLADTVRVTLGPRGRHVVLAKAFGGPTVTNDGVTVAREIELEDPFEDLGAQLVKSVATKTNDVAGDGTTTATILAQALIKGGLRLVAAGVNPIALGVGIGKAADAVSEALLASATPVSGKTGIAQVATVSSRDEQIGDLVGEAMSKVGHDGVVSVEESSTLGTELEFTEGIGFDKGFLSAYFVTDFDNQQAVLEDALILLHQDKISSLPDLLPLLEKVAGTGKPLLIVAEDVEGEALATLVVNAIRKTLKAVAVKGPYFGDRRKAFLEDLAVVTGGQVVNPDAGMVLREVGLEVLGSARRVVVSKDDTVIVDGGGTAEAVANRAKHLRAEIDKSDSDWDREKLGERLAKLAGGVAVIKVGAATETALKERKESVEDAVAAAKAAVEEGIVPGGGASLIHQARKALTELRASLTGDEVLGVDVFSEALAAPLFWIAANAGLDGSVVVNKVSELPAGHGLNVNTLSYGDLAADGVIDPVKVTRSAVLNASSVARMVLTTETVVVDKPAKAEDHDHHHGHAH
UniProt A1KGG5: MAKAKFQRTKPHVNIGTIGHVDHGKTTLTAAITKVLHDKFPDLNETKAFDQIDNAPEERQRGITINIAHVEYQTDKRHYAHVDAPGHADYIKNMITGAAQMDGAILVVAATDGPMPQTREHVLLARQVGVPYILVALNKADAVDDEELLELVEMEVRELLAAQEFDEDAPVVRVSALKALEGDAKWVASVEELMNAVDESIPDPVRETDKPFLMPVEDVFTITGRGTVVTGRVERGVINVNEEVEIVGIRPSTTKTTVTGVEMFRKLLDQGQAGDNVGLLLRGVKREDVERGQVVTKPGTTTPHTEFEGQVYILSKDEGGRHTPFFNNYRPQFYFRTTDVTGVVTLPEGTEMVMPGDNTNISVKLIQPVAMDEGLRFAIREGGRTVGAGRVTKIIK
UniProt A1KFR2: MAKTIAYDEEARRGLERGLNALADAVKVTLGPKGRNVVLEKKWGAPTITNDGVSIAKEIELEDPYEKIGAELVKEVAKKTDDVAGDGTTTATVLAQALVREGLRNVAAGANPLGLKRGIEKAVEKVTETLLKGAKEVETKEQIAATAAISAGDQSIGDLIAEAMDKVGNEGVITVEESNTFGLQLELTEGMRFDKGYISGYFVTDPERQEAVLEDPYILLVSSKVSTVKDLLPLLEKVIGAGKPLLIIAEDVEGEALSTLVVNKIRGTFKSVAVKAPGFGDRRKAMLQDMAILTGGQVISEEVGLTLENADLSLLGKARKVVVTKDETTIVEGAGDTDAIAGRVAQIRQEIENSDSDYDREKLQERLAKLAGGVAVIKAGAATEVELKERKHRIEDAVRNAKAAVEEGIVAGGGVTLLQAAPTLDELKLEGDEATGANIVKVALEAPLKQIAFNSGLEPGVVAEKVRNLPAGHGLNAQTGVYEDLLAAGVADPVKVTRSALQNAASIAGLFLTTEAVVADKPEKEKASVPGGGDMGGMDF

For test [2], the target named is T2, His-tagged plectasin NZX peptide (6×His-TEV-NZX) (Pseudoplectania nigrella).
T2 sequence: T1 sequence (chain, biotin at the C-terminal)
The description is as above.

These are yes or no findings as the source states them, for the method shown. Binding seen in cells or lysates may run through a third protein. Here binding means that the protein was enriched with, or labelled near, the bait; the list need not be complete. For some assays here: Tags and fused reporters may be left off the sequences shown.

Our source for the binding values is PMC9958537.

Take “meromycolate extension acyl carrier protein (AcpM) (from UniProt P0A4W7 1-115)”: the binding entry in test [1] and in test [2] was “binds” in each case.

For “60 kDa chaperonin 1 (from UniProt A1KPA8 1-539)”, the binding entry in test [1] and in test [2] was “binds” throughout.

With “elongation factor Tu (from UniProt A1KGG5 1-396)”, the binding entry in test [1] and in test [2] was “binds” throughout.

Take “60 kDa chaperonin 2 (from UniProt A1KFR2 1-540)”: the binding result in test [1] and in test [2] was “binds” in each case.
